Paper doi:10.1101/2021.06.20.448993
No constants are given. Whether binding was seen depends on the method and setting. In cells and extracts the contact can be indirect.

Amino acid sequences for entries named in this document (tags omitted). Residues count along the entry.
UniProt Q9QUK6, residues 26-835: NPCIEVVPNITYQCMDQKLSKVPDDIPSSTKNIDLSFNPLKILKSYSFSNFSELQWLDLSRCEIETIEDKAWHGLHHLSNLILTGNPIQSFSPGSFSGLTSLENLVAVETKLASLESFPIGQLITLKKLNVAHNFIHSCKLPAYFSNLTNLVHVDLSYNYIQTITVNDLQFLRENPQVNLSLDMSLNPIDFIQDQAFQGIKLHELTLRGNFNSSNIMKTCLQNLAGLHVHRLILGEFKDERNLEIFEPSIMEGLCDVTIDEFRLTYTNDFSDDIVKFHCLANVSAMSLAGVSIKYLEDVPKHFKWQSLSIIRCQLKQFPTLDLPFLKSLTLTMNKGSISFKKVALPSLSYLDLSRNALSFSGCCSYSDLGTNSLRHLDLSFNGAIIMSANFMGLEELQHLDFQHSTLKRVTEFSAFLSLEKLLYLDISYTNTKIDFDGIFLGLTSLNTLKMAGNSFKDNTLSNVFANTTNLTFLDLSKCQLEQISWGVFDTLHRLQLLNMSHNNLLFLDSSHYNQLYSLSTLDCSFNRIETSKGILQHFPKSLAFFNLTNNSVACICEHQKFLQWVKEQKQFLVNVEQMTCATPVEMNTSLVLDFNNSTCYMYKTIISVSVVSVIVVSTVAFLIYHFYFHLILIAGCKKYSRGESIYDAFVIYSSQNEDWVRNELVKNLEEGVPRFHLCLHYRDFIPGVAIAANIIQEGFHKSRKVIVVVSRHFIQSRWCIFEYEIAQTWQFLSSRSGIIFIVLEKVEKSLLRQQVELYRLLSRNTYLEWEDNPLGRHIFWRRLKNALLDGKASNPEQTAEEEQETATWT
UniProt Q6Q1S2, residues 19-1356: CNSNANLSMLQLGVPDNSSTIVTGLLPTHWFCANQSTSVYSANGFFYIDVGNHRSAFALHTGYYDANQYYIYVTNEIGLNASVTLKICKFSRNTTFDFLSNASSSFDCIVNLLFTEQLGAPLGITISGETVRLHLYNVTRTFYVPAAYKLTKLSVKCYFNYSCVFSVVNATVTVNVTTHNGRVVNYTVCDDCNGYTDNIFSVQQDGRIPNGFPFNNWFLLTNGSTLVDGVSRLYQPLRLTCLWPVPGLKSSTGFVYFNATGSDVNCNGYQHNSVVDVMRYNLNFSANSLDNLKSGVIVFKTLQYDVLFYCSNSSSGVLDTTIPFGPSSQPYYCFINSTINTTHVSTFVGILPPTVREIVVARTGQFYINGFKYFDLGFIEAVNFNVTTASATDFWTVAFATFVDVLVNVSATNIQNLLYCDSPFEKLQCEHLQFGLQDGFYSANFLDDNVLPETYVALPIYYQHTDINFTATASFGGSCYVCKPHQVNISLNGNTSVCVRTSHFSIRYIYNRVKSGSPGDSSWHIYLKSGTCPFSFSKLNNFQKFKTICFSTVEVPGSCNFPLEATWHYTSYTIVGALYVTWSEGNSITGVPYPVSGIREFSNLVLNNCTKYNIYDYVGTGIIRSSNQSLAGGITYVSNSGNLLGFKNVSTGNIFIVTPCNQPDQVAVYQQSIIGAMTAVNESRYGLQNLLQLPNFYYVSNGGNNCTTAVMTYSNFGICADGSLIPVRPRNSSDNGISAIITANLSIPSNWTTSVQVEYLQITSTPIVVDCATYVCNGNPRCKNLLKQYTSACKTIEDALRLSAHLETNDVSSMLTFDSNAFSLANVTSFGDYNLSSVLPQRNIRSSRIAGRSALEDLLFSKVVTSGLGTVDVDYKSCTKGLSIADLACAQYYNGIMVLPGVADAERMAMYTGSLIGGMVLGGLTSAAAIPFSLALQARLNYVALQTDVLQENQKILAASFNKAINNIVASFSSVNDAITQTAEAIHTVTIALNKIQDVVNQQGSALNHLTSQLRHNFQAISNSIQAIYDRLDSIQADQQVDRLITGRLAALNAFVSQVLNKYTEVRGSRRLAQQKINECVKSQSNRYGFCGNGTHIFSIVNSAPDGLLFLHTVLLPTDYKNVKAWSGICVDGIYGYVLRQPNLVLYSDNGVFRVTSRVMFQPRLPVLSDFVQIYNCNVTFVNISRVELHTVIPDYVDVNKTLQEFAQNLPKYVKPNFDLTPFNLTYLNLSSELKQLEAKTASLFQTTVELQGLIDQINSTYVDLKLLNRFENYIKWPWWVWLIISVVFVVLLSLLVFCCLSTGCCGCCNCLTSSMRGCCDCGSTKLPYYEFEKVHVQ

Molecular target: FLAG tagged murine TLR4 (Toll-like receptor 4) (murine) (UniProt Q9QUK6)
Test: co-IP

“8xHis tagged HCoV-NL63 Spike (from UniProt Q6Q1S2 19-1356)” was tested, and the binding was “no binding”.
